Results deposited as PubChem BioAssay AID1259291 (Sanger Institute, 2017)

Test: 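Search for gene knock-downs that act synergistically alongside anchor drugs to kill cells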 (primary screen)
Cell system: HT29 human colorectal cancer cells
Reagent: siRNA pool against human genes
Conditions: anchor drugs added a day after transfection: BYL719 at 1 µM, cetuximab at 5 µg/ml or trametinib at 10 nM, or DMSO vehicle alone
Measurement: 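Replicate-averaged viability relative to non-targeting pool, robust z-score based on control wells, plus per-drug synergy score for 1 µM BYL719, 5 µg/ml cetuximab and 10 nM trametinib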
Reading the numbers: robust z-score, knock-down alone and viability, knock-down alone: higher = more viable cells
Call rule: 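Essential when the robust z-score for knock-down without any drug is below -3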
Calls: active = essential (knock-down alone); inactive = no change alone
Here is a random part of 794 reagents. Of all reagents, 15 (1.9%) are marked active. 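Calls rest on knock-down alone; drug synergy scores do not affect them; drugs added a day post-transfection, DMSO vehicle as comparison.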 Viability is capped at 1. Not all columns of the deposit are shown. No sequences are given here. The record does not give: the amount of reagent, the time to read-out.

MASTL
- robust z-score, knock-down alone: 0.552
- viability, knock-down alone (fraction of control): 1
- Outcome: inactive

CLK4
- robust z-score, knock-down alone: 0.552
- viability, knock-down alone (fraction of control): 1
- Outcome: inactive

MAP2K4
- robust z-score, knock-down alone: 0.552
- viability, knock-down alone (fraction of control): 1
- Outcome: inactive

BMP2K
- robust z-score, knock-down alone: -0.0816
- viability, knock-down alone (fraction of control): 0.961
- Outcome: inactive

ANKK1
- robust z-score, knock-down alone: 0.552
- viability, knock-down alone (fraction of control): 1
- Outcome: inactive

Laid out differently: entries from further up.
target	robust z-score, knock-down alone	viability, knock-down alone (fraction of control)	Outcome
MASTL	0.552	1	inactive
CLK4	0.552	1	inactive

Additional results follow:
EIF2AK3
- robust z-score, knock-down alone: 0.552
- viability, knock-down alone (fraction of control): 1
- Outcome: inactive

MAP3K20
- robust z-score, knock-down alone: -1.47
- viability, knock-down alone (fraction of control): 0.875
- Outcome: inactive

CKM
- robust z-score, knock-down alone: 0.341
- viability, knock-down alone (fraction of control): 0.987
- Outcome: inactive

PKN2
- robust z-score, knock-down alone: 0.552
- viability, knock-down alone (fraction of control): 1
- Outcome: inactive

PTK2B
- robust z-score, knock-down alone: -1.72
- viability, knock-down alone (fraction of control): 0.859
- Outcome: inactive

PAPSS1
- robust z-score, knock-down alone: 0.552
- viability, knock-down alone (fraction of control): 1
- Outcome: inactive

CSNK1G2
- robust z-score, knock-down alone: 0.552
- viability, knock-down alone (fraction of control): 1
- Outcome: inactive
